# Library screen at single concentrations

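Whole-parasite assay of Trypanosoma brucei over 72 hours; the read-out is not stated. Tested at 30 µM. Direction is inferred from retests: higher values go with stronger inhibition. Values scatter widely below zero; nearly all retest evidence comes from the higher of the two concentrations used. Size under these conditions: about 64,000 compounds, about 940 of them at 50% or above in at least one test.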

Each number is a percent effect as filed.
How 0% and 100% were set is not recorded. Most values in the screen are low, and negative values occur.
The compounds are a random part of those screened.

compound | Percent Effect
Cc1csc(CCNC(=O)NC(C)Cn2cccn2)n1 (stereo not shown) | -34.69
Cc1ccccc1CC(=O)N1CCOCC1c1c(C)n[nH]c1C (stereo not shown) | 1.74
CC(=O)N1CCN(CCNC(=O)NC(C)Cn2ccnc2)CC1 (stereo not shown) | 2.675
CN(Cc1nnc(C2CC2)n1C)S(=O)(=O)c1ccccc1C#N | -14.36
CC(C)(C)n1cc(C2=CCN(CCc3ccccn3)CC2)cn1 | -25.88
CCn1nc(C)c(NC(=O)c2nnn(Cc3ccccc3)c2OC)c1C | -11.85
Cc1cc(N2CCC(NCCOc3ccccc3)CC2)nc(C)n1 | -32.9
COc1cc(CNCCc2cc(F)cc3c2OCOC3)cc(OC)c1 | -44.96
O=C(C1CC1)N1CCN(Cc2coc(-c3ccc(Cl)cc3)n2)CC1 | 25.75
[H][C@]12CN(C(=O)c3cnn(C)c3)CC[C@@]1(O)CCN(C(=O)C1CCCC1)C2 | -134.2
Cc1nc(C(C)(C)C)sc1C(=O)NCCn1ccnc1 | -17.01
O=C(NCCn1cccc1)C1CCC(=O)N(C2CCCC2)C1 (stereo not shown) | -22.56
CCNc1ncc(C(=O)NCc2csc(-c3ncccn3)n2)cn1 | -36.71
CCN(CC)C(=O)C1CCCN(CC(=O)Nc2c(C)nn(CC)c2C)C1 (stereo not shown) | -89.89
CC(=O)N1CCC2(CCN(C(=O)c3ccc(F)c(C(F)(F)F)c3)C2)C1 (stereo not shown) | 26.92
CSC(C)CCN(Cc1ccccn1)Cc1sccc1C (stereo not shown) | -21.25
COc1c(CNC2CCCOc3ccccc32)c(C)nn1C (stereo not shown) | 12.51
Cc1ncc(CNC(=O)Cc2ccc(Cl)cc2)c(C2CCCN2C)n1 (stereo not shown) | 8.706
COc1cc(C2CC(=O)Nc3c2c(=O)[nH]n3C2CCCC2)ccc1O (stereo not shown) | -13.6
O=C(O)C(F)(F)F.O=C(O)C(F)(F)F.[H][C@@]12COC[C@@H](CC(=O)N3CCOCC3)[C@]1([H])CN(Cc1ccncc1)C2 | 25.58
CCCC(C)C(=O)NCc1cn2cc(Br)ccc2n1 (stereo not shown) | 6.333
c1cnn(CC2CCCN2Cc2nc(-c3ccoc3)no2)c1 (stereo not shown) | -15.99
Cn1cnnc1C1CCCN(Cc2nc(Cc3ccccc3)no2)C1 (stereo not shown) | -42.78
Cc1n[nH]c(C)c1Sc1ccccc1NC(=O)N1CCN(C)CC1 | -19.96
CN1CCC(C(=O)N2CCN(Cc3cccc(Cl)c3)CC2)CC1=O (stereo not shown) | 6.32
CC(C)OCCC(=O)NCC(O)c1c(Cl)cccc1Cl (stereo not shown) | -9.404
CCCn1nc2c(cc1=O)CN(c1ncnc3sccc13)CC2 | 3.821
O=C(c1cc(C2CC2)nc2onc(-c3ccccc3)c12)N1CC(O)C1 | -57.76
Cn1c(N)nnc1SCc1cc(Br)ccc1Cl | -15.17
O=C(CCc1nnc2ccccn2c1=O)NCc1cccnc1 | -22.05
O=C1CC(N(C(=O)COc2ccc(F)cc2F)C2CC2)C(=O)N1 (stereo not shown) | -16.13
CCSc1cc(C(=O)NCCNC(=O)Cc2ccccc2)ccn1 | -13.08
CN(CC(=O)Nc1nncs1)CC1CCCN1c1cccnn1 (stereo not shown) | -103.8
CCC(=O)N1CCCC(C(=O)c2cnn(-c3ccc(F)cc3)c2N)C1 (stereo not shown) | 13.96
CCN(CC)CCNC(=O)c1cnc(C(C)(C)C)s1 | -13.43
Cn1ccnc1CN1CCC2(CC1)CCN(Cc1ccoc1)C2.O=C(O)C(F)(F)F.O=C(O)C(F)(F)F | -11.21
Cc1cc(CNc2ccccc2Cl)no1 | 4.784
COc1ccc2c(c1)C1(CCN(Cc3nccs3)CC1)N(C)CC2.O=C(O)C(F)(F)F.O=C(O)C(F)(F)F | -23.29
CCOC(=O)N1CCN(C(=O)c2sc(-c3ccncc3)nc2C)CC1 | -46.02
O=C(O)C(F)(F)F.[H][C@@]12COC[C@]1(CNC(=O)c1ccccc1)CN(Cc1scnc1C)C2 | -20.97
COc1cc(CNC(=O)c2c(C)noc2C(C)C)ccn1 | 19.08
CCc1nc(CN(C)Cc2nc(-c3ccccc3Cl)oc2C)no1 | -1.313
O=C1CCCN1Cc1nnc2n1CCCN(C(=O)c1ccco1)C2 | -29.14
COCC1CC2(CCN(Cc3nccn3C)CC2)CN1c1ncccn1.O=C(O)C(F)(F)F (stereo not shown) | -10.23
O=C(O)C(F)(F)F.O=C(O)C(F)(F)F.[H][C@@]12CCN(Cc3ccco3)[C@]1([H])CC[C@@H](C(=O)NCCc1ccncc1)O2 | -5.442
O=C1COc2ccc(C(=O)NS(=O)(=O)c3ccc(F)cc3F)cc2N1 | 24.34
[H][C@@]12CCN(C(=O)NC(C)C)CC[C@]1(C(=O)N(C)C)CCN2CC | -16.09
CN(C)C(Cn1ccnc1-c1nccn1C)c1ccccc1Cl (stereo not shown) | -5.243
COc1ccc(CN2CCc3ncnc(OC(C)C)c3CC2)cc1.O=C(O)C(F)(F)F | -62.16
CCOC(=O)CCn1cnc2onc(-c3cc(OC)ccc3Cl)c2c1=O | -59.69
CCS(=O)(=O)CC(=O)NC1CCc2nccn2C1 (stereo not shown) | 18.95
CCOC1COC2(CCN(Cc3ccco3)CC2)C1.O=C(O)C(F)(F)F (stereo not shown) | -13.18
CNC(=O)c1ccc(C(=O)N2CCCC(n3nc(C)cc3C)C2)cn1 (stereo not shown) | -2.031
CN(C)c1ncc(-c2cc(C(=O)N3CCCC3)n(CC3CC3)c2)cn1 | 21.56
O=C(c1cnc2ccccc2c1)N1CCCC(O)(CN2CCCC2)C1 (stereo not shown) | -41.38
CC(C)c1noc(C(C)N2CCC(c3nc4ccccc4o3)CC2)n1 (stereo not shown) | -7.562
O=C(O)C(F)(F)F.O=C(O)C(F)(F)F.[H][C@@]12C[C@@H](Oc3cccc(F)c3)CN1CCN(C(=O)c1ccncc1)C2 | 2.775
COc1ccccc1NC(=O)NC(C)c1nc[nH]n1 (stereo not shown) | -5.839
COc1ccc(CCC(=O)N2CCNCC2C(=O)N2CCOCC2)cc1 (stereo not shown) | 5.51
COc1ccc(CN2CCc3[nH]nc(C(=O)N(C)C)c3C2)cc1.O=C(O)C(F)(F)F | 4.36
[H][C@@]12CN(c3ccc(C)nn3)C[C@@H](C(=O)NC3CCCC3)[C@]1([H])CCO2 | -13.89
Cc1ccoc1C(=O)NC1CCN(CC(=O)N(C)c2ccccc2)CC1 | -13.4
Cn1cc(CCCNC(=O)NC2CCN(c3ccccc3)C2=O)cn1 (stereo not shown) | 7.224
CCN1CCN(Cc2coc(-c3cccc(F)c3)n2)CC1 | -0.8506
Cc1cc(C)n(CC2CCCN2Cc2nc(N)c3ccccc3n2)n1 (stereo not shown) | 41.26
CC(=O)Nc1cccc2c1ccn2CC(=O)Nc1n[nH]c(CC(C)C)n1 | -2.558
Nc1ncc(C(=O)N2CCC(O)(CO)CC2)c(-c2ccccc2)n1 | -97.28
O=C(Cn1cccn1)N1CCc2[nH]nc(-c3ccc4c(c3)OCO4)c2C1 | -217.5
CC(=O)N1CCN(Cc2coc(-c3cccc(F)c3)n2)CC1 | 1.738
CN(C)CCN1CCN(C)C2(CCN(c3nccs3)CC2)C1=O | -40.91

The first 8 entries again:

Result for Cc1csc(CCNC(=O)NC(C)Cn2cccn2)n1 (stereo not shown) was -34.69%.
Result for Cc1ccccc1CC(=O)N1CCOCC1c1c(C)n[nH]c1C (stereo not shown) was 1.74%.
Result for CC(=O)N1CCN(CCNC(=O)NC(C)Cn2ccnc2)CC1 (stereo not shown) was 2.675%.
Result for CN(Cc1nnc(C2CC2)n1C)S(=O)(=O)c1ccccc1C#N was -14.36%.
Result for CC(C)(C)n1cc(C2=CCN(CCc3ccccn3)CC2)cn1 was -25.88%.
Result for CCn1nc(C)c(NC(=O)c2nnn(Cc3ccccc3)c2OC)c1C was -11.85%.
Result for Cc1cc(N2CCC(NCCOc3ccccc3)CC2)nc(C)n1 was -32.9%.
Result for COc1cc(CNCCc2cc(F)cc3c2OCOC3)cc(OC)c1 was -44.96%.

Measurements from “University of Dundee, Small-Polar-MMV Screening Library” (2021), ChEMBL document CHEMBL3988442.